Experimental data: PubChem BioAssay AID1224830 (NIAID, 2016)
In all, the deposit lists about 18,000 reagents; shown is a part drawn at random. About 2,900 of them (16%) count as active. 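Calls are made per well; low scores hint the gene aids the LPS response, high scores that it dampens it.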 Repeated entries: four replicate wells of each siRNA pool.

Screen: 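Host factors that control LPS-induced TNF expression in human macrophages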 (primary screen)
System: human THP-1 monocytic leukaemia cells, TNF dual-luciferase reporter clone, PMA-differentiated to macrophage-like cells
Reagent: siRNA pool against human genes, 50 nM
Time to read-out: LPS for 4 h, given about 3 days after siRNA transfection
Treatment: bacterial LPS (TLR4 ligand), 10 ng/ml
Measured: 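Ratio of firefly to renilla light, scaled to the plate median and expressed as a robust z-score per replicate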
Scale: TNF reporter robust z-score: higher = stronger TNF reporter response to LPS
Hit rule: 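a well is active when its z-score exceeds 2.8 or falls below -1.5; control wells carry no call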

What did the screen give for SLCO2B1 (GeneID 11309)?
TNF reporter robust z-score: -0.16; Outcome: inactive

Which result is listed for SLCO2B1 (GeneID 11309)?
TNF reporter robust z-score: 0.07; Outcome: inactive

Which result is listed for SLCO2B1 (GeneID 11309)?
TNF reporter robust z-score: -0.1; Outcome: inactive

What did the screen give for SLCO2B1 (GeneID 11309)?
TNF reporter robust z-score: -0.43; Outcome: inactive

How did the screen score NUDT16 (GeneID 131870)?
TNF reporter robust z-score: 0.9; Outcome: inactive

For NUDT16 (GeneID 131870), what was measured?
TNF reporter robust z-score: 0.22; Outcome: inactive

With NUDT16 (GeneID 131870), what does the deposit list?
TNF reporter robust z-score: 1.54; Outcome: inactive

What did the screen give for NUDT16 (GeneID 131870)?
TNF reporter robust z-score: 0.72; Outcome: inactive

How did the screen score CD68 (GeneID 968)?
TNF reporter robust z-score: 2.22; Outcome: inactive

For CD68 (GeneID 968), how do the results read?
TNF reporter robust z-score: 1.91; Outcome: inactive

What is on record for CD68 (GeneID 968)?
TNF reporter robust z-score: 0.36; Outcome: inactive

For CD68 (GeneID 968), how do the results read?
TNF reporter robust z-score: 0.37; Outcome: inactive

How did the screen score CFLAR (GeneID 8837)?
TNF reporter robust z-score: -1.72; Outcome: active

Which result is listed for CFLAR (GeneID 8837)?
TNF reporter robust z-score: -1.4; Outcome: inactive

For CFLAR (GeneID 8837), what does the deposit list?
TNF reporter robust z-score: -1.81; Outcome: active

With CFLAR (GeneID 8837), what does the deposit list?
TNF reporter robust z-score: -1.71; Outcome: active

Quoted from the listing for reference:
NUDT16 (GeneID 131870) — TNF reporter robust z-score: 1.54; Outcome: inactive
NUDT16 (GeneID 131870) — TNF reporter robust z-score: 0.72; Outcome: inactive
CD68 (GeneID 968) — TNF reporter robust z-score: 2.22; Outcome: inactive
CD68 (GeneID 968) — TNF reporter robust z-score: 1.91; Outcome: inactive
CD68 (GeneID 968) — TNF reporter robust z-score: 0.36; Outcome: inactive
CD68 (GeneID 968) — TNF reporter robust z-score: 0.37; Outcome: inactive
CFLAR (GeneID 8837) — TNF reporter robust z-score: -1.72; Outcome: active
CFLAR (GeneID 8837) — TNF reporter robust z-score: -1.4; Outcome: inactive

The list goes on.
What did the screen give for CCNI2 (GeneID 645121)?
TNF reporter robust z-score: 0.51; Outcome: inactive

Which result is listed for CCNI2 (GeneID 645121)?
TNF reporter robust z-score: 0.39; Outcome: inactive

Which result is listed for CCNI2 (GeneID 645121)?
TNF reporter robust z-score: -0.06; Outcome: inactive

With CCNI2 (GeneID 645121), what does the deposit list?
TNF reporter robust z-score: 0.44; Outcome: inactive

How did the screen score MOB3A (GeneID 126308)?
TNF reporter robust z-score: -0.91; Outcome: inactive

Which result is listed for MOB3A (GeneID 126308)?
TNF reporter robust z-score: -0.61; Outcome: inactive

With MOB3A (GeneID 126308), what does the deposit list?
TNF reporter robust z-score: -1.37; Outcome: inactive

What did the screen give for MOB3A (GeneID 126308)?
TNF reporter robust z-score: -1.56; Outcome: active

With FLJ46838 (retired record) (GeneID 440865), how do the results read?
TNF reporter robust z-score: 0.25; Outcome: inactive

How did the screen score FLJ46838 (retired record) (GeneID 440865)?
TNF reporter robust z-score: 1.43; Outcome: inactive

What did the screen give for FLJ46838 (retired record) (GeneID 440865)?
TNF reporter robust z-score: 1.12; Outcome: inactive

What did the screen give for FLJ46838 (retired record) (GeneID 440865)?
TNF reporter robust z-score: 1.11; Outcome: inactive

For FBXO7 (GeneID 25793), what was measured?
TNF reporter robust z-score: 0.92; Outcome: inactive

What is on record for FBXO7 (GeneID 25793)?
TNF reporter robust z-score: -0.27; Outcome: inactive

Which result is listed for FBXO7 (GeneID 25793)?
TNF reporter robust z-score: 0.26; Outcome: inactive

For FBXO7 (GeneID 25793), what was measured?
TNF reporter robust z-score: 0.39; Outcome: inactive

What did the screen give for ST8SIA6 (GeneID 338596)?
TNF reporter robust z-score: 0.17; Outcome: inactive

With ST8SIA6 (GeneID 338596), what was measured?
TNF reporter robust z-score: 0.37; Outcome: inactive

For ST8SIA6 (GeneID 338596), what does the deposit list?
TNF reporter robust z-score: 0.59; Outcome: inactive

For ST8SIA6 (GeneID 338596), how do the results read?
TNF reporter robust z-score: 2.96; Outcome: active

With TNFRSF13B (GeneID 23495), how do the results read?
TNF reporter robust z-score: -0.58; Outcome: inactive

For TNFRSF13B (GeneID 23495), how do the results read?
TNF reporter robust z-score: 0.58; Outcome: inactive

With TNFRSF13B (GeneID 23495), what does the deposit list?
TNF reporter robust z-score: 1.07; Outcome: inactive

What is on record for TNFRSF13B (GeneID 23495)?
TNF reporter robust z-score: -0.11; Outcome: inactive

With MTMR10 (GeneID 54893), how do the results read?
TNF reporter robust z-score: -1.47; Outcome: inactive

For MTMR10 (GeneID 54893), what was measured?
TNF reporter robust z-score: -0.35; Outcome: inactive

With MTMR10 (GeneID 54893), how do the results read?
TNF reporter robust z-score: -1.03; Outcome: inactive

What did the screen give for MTMR10 (GeneID 54893)?
TNF reporter robust z-score: -1.48; Outcome: inactive

What is on record for FOXE1 (GeneID 2304)?
TNF reporter robust z-score: -0.97; Outcome: inactive

For FOXE1 (GeneID 2304), what was measured?
TNF reporter robust z-score: -0.48; Outcome: inactive

For FOXE1 (GeneID 2304), how do the results read?
TNF reporter robust z-score: -0.75; Outcome: inactive
